The values below are quoted from earlier work in PMC6966871.

SMILES strings stand for the structures.

For this series, the system named is lung adenocarcinoma patient-derived xenograft (PDX). To be noted: particularly in tumors with high expression of c-MET; cited from earlier work.

Turning to `O=C(Nc1ccc(Oc2ccnc3c2CCN3)c(F)c1)c1c[nH]cc(-c2ccc(F)cc2)c1=O`, the “therapeutic effect on lung adenocarcinoma PDX models” value was “promising therapeutic effects”.
